Data on 72 compounds can be found in the supplement of paper PMC9578143, “Small-Molecule Ebselen Binds to YTHDF Proteins Interfering with the Recognition of N^6-Methyladenosine-Modified RNAs” (ACS Pharmacology & Translational Science, 2022).

Some of the results follow. Part of the spread comes from offsets between plates or batches.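 Hits were defined as a z-score below −3.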

This assay addresses T1, YTHDF1 YTH domain (aa 365-554) (UniProt Q9BYJ9).
T1 sequence (whole entry): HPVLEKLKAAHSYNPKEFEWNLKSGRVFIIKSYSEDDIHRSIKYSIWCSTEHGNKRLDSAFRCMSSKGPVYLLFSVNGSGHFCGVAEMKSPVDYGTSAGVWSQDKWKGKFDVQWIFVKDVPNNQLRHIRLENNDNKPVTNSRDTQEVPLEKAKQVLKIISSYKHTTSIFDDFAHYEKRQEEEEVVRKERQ
As to the kind of experiment: tryptophan fluorescence intensity z-score (mean); higher = higher fluorescence, less quenching (negative = binding / quenching). To be noted: 10 µM.
Take `c1coc(CNc2ncnc3[nH]cnc23)c1` (plate: M 17-18): the “tryptophan fluorescence intensity z-score” value was inactive: 0.154.

As to `CC(=O)Oc1cc(-c2coc3cc(OC(C)=O)c(OC(C)=O)c(OC(C)=O)c3c2=O)cc(OC(C)=O)c1OC(C)=O` (plate: M 15-16), the “tryptophan fluorescence intensity z-score” value was inactive: -0.837.

With `Cc1cc2c(s1)Nc1ccccc1N=C2N1CCN(C)CC1` (plate: M 9-10), the “tryptophan fluorescence intensity z-score” value is inactive: -0.185.

As to `CC1(C)C(O[C@@H]2OC[C@@H](O)[C@H](O)[C@H]2O)CC[C@]23CC24CC[C@]2(C)[C@@H]([C@@]5(C)CC[C@@H](C(C)(C)O)O5)[C@H](O)C[C@@]2(C)C4C[C@@H](O[C@@H]2O[C@H](CO)[C@@H](O)[C@H](O)[C@H]2O)C13` (some centres not stated) (plate: M 19-20), the “tryptophan fluorescence intensity z-score” value is inactive: 0.358.

On to `CC=CC1=C(C(=O)O)N2C(=O)[C@@H](NC(=O)[C@H](N)c3ccc(O)cc3)[C@H]2SC1` (plate: M 11-12), for which the “tryptophan fluorescence intensity z-score” value was inactive: -0.617.

In the case of `COC(=O)c1c(C)cc(OC)cc1O` (plate: M 15-16), the “tryptophan fluorescence intensity z-score” value is inactive: 0.465.

As to `NC(=O)CC[C@H](N)C(=O)O` (plate: M 17-18), the “tryptophan fluorescence intensity z-score” value was inactive: 0.424.

On to `NC(=O)CC[C@H](N)C(=O)O` (plate: M 1-2), for which the “tryptophan fluorescence intensity z-score” value is inactive: 0.424.

As to `O=C1c2ccccc2C(=O)C1c1ccc(Br)cc1` (plate: M 11-12), the “tryptophan fluorescence intensity z-score” value was inactive: 0.46.

Consider `CC(C)OC(=O)C(C)(C)Oc1ccc(C(=O)c2ccc(Cl)cc2)cc1` (plate: M 7-8), for which the “tryptophan fluorescence intensity z-score” value was inactive: -0.0437.

As for `CN1CCCN=C1/C=C/c1cccc(O)c1` (plate: M 11-12), the “tryptophan fluorescence intensity z-score” value is inactive: 0.132.

For the compound `CC(N)CCCC(C)(C)O` (configuration not stated) (plate: M 23-24), the “tryptophan fluorescence intensity z-score” value is inactive: 0.346.

As for `C=C1CCC(C2CC(=O)OC2=O)C(=O)CCC2C1CC2(C)C` (configuration not stated) (plate: M 17-18), the “tryptophan fluorescence intensity z-score” value is inactive: 0.223.

`Oc1cccc(O)c1` (plate: M 5-6): the “tryptophan fluorescence intensity z-score” value is inactive: -0.479.

For the compound `CC(=O)N(c1onc(C)c1C)S(=O)(=O)c1ccc(N)cc1` (plate: M 11-12), the “tryptophan fluorescence intensity z-score” value was inactive: -0.932.

For `Cc1cc(O)cc(C)c1Cl` (plate: M 1-2), the “tryptophan fluorescence intensity z-score” value is inactive: 0.17.

Regarding `COc1ccc2c(c1)CC[C@@H]1[C@@H]2CC[C@]2(C)[C@@H](O)CC[C@@H]12` (plate: M 21-22), the “tryptophan fluorescence intensity z-score” value was inactive: 0.0582.

With `COc1cccc2c1C(=O)c1c(O)c3c(c(O)c1C2=O)C[C@@](O)(C(=O)CO)C[C@@H]3O[C@H]1C[C@H](N)[C@@H](O)[C@H](C)O1` (plate: M 11-12), the “tryptophan fluorescence intensity z-score” value is inactive: -0.554.

`C/C=C/c1ccc(OC)cc1` (plate: M 9-10): the “tryptophan fluorescence intensity z-score” value was inactive: -0.363.

In the case of `C=C(C)[C@@H]1CC[C@]2(CO)CC[C@]3(C)[C@H](CC[C@@H]4[C@@]5(C)CC[C@H](O)C(C)(C)[C@@H]5CC[C@]43C)[C@@H]12` (plate: M 17-18), the “tryptophan fluorescence intensity z-score” value is inactive: 0.527.

`O[C@H]1[C@H](O)[C@@H](O)[C@H](O)[C@@H](O)[C@H]1O` (plate: M 3-4): the “tryptophan fluorescence intensity z-score” value was inactive: -0.1.

Consider `CC(=O)O[C@H]1C(=O)[C@@]2(C)[C@H]([C@H](OC(=O)c3ccccc3)[C@]3(O)C[C@H](OC(=O)[C@H](O)[C@@H](NC(=O)c4ccccc4)c4ccccc4)C(C)=C1C3(C)C)[C@]1(OC(C)=O)CO[C@@H]1C[C@@H]2O` (plate: M 9-10), for which the “tryptophan fluorescence intensity z-score” value was inactive: -0.612.

For the compound `NC(=O)c1cnccn1` (plate: M 5-6), the “tryptophan fluorescence intensity z-score” value is inactive: -0.0403.

`CC(=O)c1ccc[nH]1` (plate: M 21-22): the “tryptophan fluorescence intensity z-score” value is inactive: -0.283.

`O=C(CCNNC(=O)c1ccncc1)NCc1ccccc1` (plate: M 11-12): the “tryptophan fluorescence intensity z-score” value is inactive: -0.017.

Consider `Cc1nc2ccccn2c(=O)c1CCN1CCC(C(=O)c2ccc(F)cc2)CC1` (plate: M 9-10), for which the “tryptophan fluorescence intensity z-score” value is inactive: -0.397.

Take `O=c1n(CCCN2CCN(c3cccc(Cl)c3)CC2)nc2ccccn12` (plate: M 7-8): the “tryptophan fluorescence intensity z-score” value is inactive: 0.0704.

Consider `CC1/C(=N/O)C[C@@H]2C[C@H]1C2(C)C` (some centres not stated) (plate: M 21-22), for which the “tryptophan fluorescence intensity z-score” value is inactive: 0.393.

Regarding `CC1(C)S[C@@H]2[C@H](NC(=O)[C@H](N)c3ccccc3)C(=O)N2[C@H]1C(=O)O` (plate: M 1-2), the “tryptophan fluorescence intensity z-score” value is inactive: 0.368.

As to `O=C(/C=C/c1ccccc1)c1ccc(O[C@@H]2O[C@H](CO)[C@@H](O)[C@H](O)[C@H]2O)cc1O` (plate: M 15-16), the “tryptophan fluorescence intensity z-score” value was inactive: 0.0238.

`C=C[C@H]1CN2CC[C@H]1C[C@H]2[C@H](O)c1ccnc2ccc(OC)cc12` (plate: M 5-6): the “tryptophan fluorescence intensity z-score” value was inactive: -0.159.

For the compound `COc1ccc([C@@H](C)C(=O)c2ccc(O)cc2O)cc1` (plate: M 15-16), the “tryptophan fluorescence intensity z-score” value is inactive: 0.178.

`CC1=C(/C=C/C(C)=C/C=C/C(C)=C/CO)C(C)(C)CCC1` (plate: M 7-8): the “tryptophan fluorescence intensity z-score” value is inactive: 0.251.

As for `C/C=C(/C(=C/C)c1ccc(O)cc1)c1ccc(O)cc1` (plate: M 1-2), the “tryptophan fluorescence intensity z-score” value was inactive: 0.626.

As for `Cc1ncc([N+](=O)[O-])n1CC(C)O` (configuration not stated) (plate: M 23-24), the “tryptophan fluorescence intensity z-score” value is inactive: 0.11.

Consider `O=C(O)c1ccccc1OP(=O)(O)O` (plate: M 23-24), for which the “tryptophan fluorescence intensity z-score” value was inactive: 0.264.

On to `COC(=O)c1c(C)cc(OC(=O)c2c(C)cc(O)c(C=O)c2O)c(C)c1O` (plate: M 15-16), for which the “tryptophan fluorescence intensity z-score” value is inactive: -0.0857.

For the compound `Nc1cc(N2CCCCC2)nc(N)[n+]1[O-]` (plate: M 3-4), the “tryptophan fluorescence intensity z-score” value was inactive: 0.114.

For the compound `C[N+](C)(C)CC(O)CC(=O)O` (configuration not stated) (plate: M 17-18), the “tryptophan fluorescence intensity z-score” value was inactive: 0.748.

As to `CC(=O)NS(=O)(=O)c1ccc(N)cc1` (plate: M 5-6), the “tryptophan fluorescence intensity z-score” value was inactive: 0.147.

On to `OCc1ccccc1O[C@@H]1O[C@H](CO)[C@@H](O)[C@H](O)[C@H]1O` (plate: M 7-8), for which the “tryptophan fluorescence intensity z-score” value was inactive: 0.0838.

For `C=CC1=C(C(=O)O)N2C(=O)[C@@H](NC(=O)/C(=N\O)c3csc(N)n3)[C@H]2SC1` (plate: M 9-10), the “tryptophan fluorescence intensity z-score” value was inactive: -0.513.

As to `O=C(O[C@@H]1Cc2c(O)cc(O)cc2O[C@@H]1c1cc(O)c(=O)c2c(O)c(O)cc([C@H]3Oc4cc(O)cc(O)c4C[C@H]3OC(=O)c3cc(O)c(O)c(O)c3)c2c1)c1cc(O)c(O)c(O)c1` (plate: M 15-16), the “tryptophan fluorescence intensity z-score” value was inactive: -1.38.

In the case of `COc1cccc2c1C(=O)c1c(O)c3c(c(O)c1C2=O)C[C@@](O)(C(C)=O)C[C@@H]3O[C@H]1C[C@H](N)[C@H](O)[C@H](C)O1` (plate: M 1-2), the “tryptophan fluorescence intensity z-score” value was inactive: -0.16.

For `Oc1ccc([C@H]2Oc3cc(O)cc(O)c3C[C@H]2O)cc1` (plate: M 15-16), the “tryptophan fluorescence intensity z-score” value is inactive: 0.435.

In the case of `CC(=O)CC(c1ccccc1)c1c(O)c2ccccc2oc1=O` (configuration not stated) (plate: M 5-6), the “tryptophan fluorescence intensity z-score” value was inactive: -0.456.

On to `NS(=O)(=O)c1cc2c(cc1Cl)NC(C1CC3C=CC1C3)NS2(=O)=O` (configuration not stated) (plate: M 9-10), for which the “tryptophan fluorescence intensity z-score” value is inactive: -0.0975.

For `O=C1NS(=O)(=O)c2ccccc21` (plate: M 7-8), the “tryptophan fluorescence intensity z-score” value is inactive: 0.0378.

In the case of `NC(=O)NCCC[C@H](N)C(=O)O` (plate: M 17-18), the “tryptophan fluorescence intensity z-score” value is inactive: 0.36.

`O=c1oc2c(O)c(O)cc3c(=O)oc4c(O)c(O)cc1c4c23` (plate: M 19-20): the “tryptophan fluorescence intensity z-score” value was inactive: 0.339.

For the compound `CC(=O)OCC(=O)[C@@]12OC(C)(C)O[C@@H]1C[C@H]1[C@@H]3C[C@H](F)C4=CC(=O)C=C[C@]4(C)[C@@]3(F)[C@@H](O)C[C@@]12C` (plate: M 3-4), the “tryptophan fluorescence intensity z-score” value was inactive: -0.00504.

Regarding `c1ccc2c(CC3=NCCN3)cccc2c1` (plate: M 3-4), the “tryptophan fluorescence intensity z-score” value was inactive: 0.248.

On to `CCN(CC)CC(=O)Nc1c(C)cccc1C` (plate: M 5-6), for which the “tryptophan fluorescence intensity z-score” value was inactive: 0.0118.

With `COc1cc(OC)c2c(c1Cl)O[C@@]1(C(=O)CC(=O)C[C@H]1C)C2=O` (plate: M 15-16), the “tryptophan fluorescence intensity z-score” value was inactive: -0.287.

In the case of `Cc1cc(O)c(C=O)c(O)c1C(=O)O` (plate: M 17-18), the “tryptophan fluorescence intensity z-score” value was inactive: -0.00516.

In the case of `CC[C@@H]1C(=O)OC[C@@H]1Cc1cncn1C` (plate: M 13-14), the “tryptophan fluorescence intensity z-score” value was inactive: 0.691.

As to `CN1C(=O)CC[C@H]1c1cccnc1` (plate: M 13-14), the “tryptophan fluorescence intensity z-score” value was inactive: 0.676.

Take `COc1ccc(-c2coc3c(O)c(O)c(OC)cc3c2=O)cc1` (plate: M 21-22): the “tryptophan fluorescence intensity z-score” value is inactive: 0.0368.

Take `Cc1c(NC(=O)c2cccnc2)c(=O)n(-c2ccccc2)n1C` (plate: M 21-22): the “tryptophan fluorescence intensity z-score” value was inactive: 0.421.

In the case of `O=C(/C=C/c1ccc(O)cc1)c1ccc(O)cc1O` (plate: M 19-20), the “tryptophan fluorescence intensity z-score” value was inactive: -0.089.

For the compound `CS(=O)(=O)OCCCCOS(C)(=O)=O` (plate: M 1-2), the “tryptophan fluorescence intensity z-score” value is inactive: 0.114.

Regarding `NC(=O)CCCCC1CCSS1` (configuration not stated) (plate: M 13-14), the “tryptophan fluorescence intensity z-score” value is inactive: 0.0921.

As for `NS(=O)(=O)c1cc2c(cc1C(F)(F)F)NCNS2(=O)=O` (plate: M 3-4), the “tryptophan fluorescence intensity z-score” value was inactive: -0.146.

Turning to `CC(O)Cn1cnc2c1c(=O)n(C)c(=O)n2C` (configuration not stated) (plate: M 23-24), the “tryptophan fluorescence intensity z-score” value is inactive: 0.523.

On to `CCC1(C)OC(=O)N(C)C1=O` (configuration not stated) (plate: M 13-14), for which the “tryptophan fluorescence intensity z-score” value is inactive: 0.513.

Consider `N[C@@H](Cc1c[nH]c2ccccc12)C(=O)O` (plate: M 5-6), for which the “tryptophan fluorescence intensity z-score” value was inactive: 0.549.

Take `O=C(OOC(=O)c1ccccc1)c1ccccc1` (plate: M 7-8): the “tryptophan fluorescence intensity z-score” value was inactive: 0.305.

With `COC1=CC(=O)C(C(=O)c2ccccc2)=CC1=O` (plate: M 15-16), the “tryptophan fluorescence intensity z-score” value is inactive: 0.275.

Turning to `Nc1c2ccccc2nc2ccccc12` (plate: M 5-6), the “tryptophan fluorescence intensity z-score” value is inactive: 0.229.

As for `CN1CCC(=C2c3ccccc3Sc3ccccc32)CC1` (plate: M 21-22), the “tryptophan fluorescence intensity z-score” value was inactive: 0.235.

With `N[C@@H](Cc1cc(I)c(Oc2ccc(O)c(I)c2)c(I)c1)C(=O)O` [LIOTHYRONINE(L-isomer)SODIUM] (plate: M 7-8), the “tryptophan fluorescence intensity z-score” value was inactive: 0.298.

For the compound `N[C@@H](Cc1cc(I)c(Oc2ccc(O)c(I)c2)c(I)c1)C(=O)O` (plate: M 5-6), the “tryptophan fluorescence intensity z-score” value is inactive: 0.164.
